Test results reported in PubChem BioAssay AID504834 (National Center for Advancing Translational Sciences (NCATS), 2011).
The whole screen tested about 320,000 compounds, of which about 22,000 (6.9%) were called active. The inconclusive results got no clear call from the source; some entries with a clear call stand among them for comparison. Calls follow the shape of the dose curve; as a rule, active = well fitted inhibition curve with a large enough effect; inconclusive = small, poorly fitted or top-dose-only effect, or another doubt; inactive = no such curve, though single readings can be large or run the other way. Potencies beside an inconclusive call are fits to weak or partial responses and may not hold up.

Test: Primary qHTS for delayed death inhibitors of the malarial parasite plastid, 96 hour incubation
Conditions: P. falciparum luciferase reporter growth; series mostly up to 28.7 µM; activity change, negative = inhibition: at the top concentration
Outline: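 Parasite growth measured via integrated firefly luciferase reporter in P. falciparum. Infected erythrocytes at 2% hematocrit, 0.05% parasitemia final were treated 96 hours at 37 C under 5% CO2, and luminescence was read.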
% is scaled to controls: 0 for no effect and ±100 for the full control effect; potency is read from the fitted curve at half-maximal effect.

Structure (SMILES) | Potency | activity change, negative = inhibition
Cn1c(SCC(=O)N2CCCCC2)nnc1-c1ccc(S(=O)(=O)N2CCOCC2)cc1 | active: 13.1 µM | –
O=C(NC1CCCCC1)C(c1ccc2ncccc2c1)N(Cc1ccco1)C(=O)c1ccc2c(c1)OCCO2 (stereo unspecified) | active: 2.62 µM | –
O=c1c2c(ncn1Cc1ccccc1)nc1n2CCC1 | inconclusive: 18.5 µM [inhibitor, single point] | –
CC(C)CN(CCOc1cccc(N2C(=O)C3=C(CCCC3)C2=O)c1)CC(C)C | inconclusive: 16.5 µM [inhibitor, single point] | –
CCN(CC)S(=O)(=O)c1cccc(NC(=O)c2ccc(C#N)cc2)c1 | inconclusive: 10.4 µM [inhibitor, partial curve, poor fit] | –
CCCCSCCCNC(=O)C1CCC(CNS(=O)(=O)c2ccc(NC(C)=O)cc2)CC1 (stereo unspecified) | inconclusive: 0.928 µM [inhibitor, full curve] | –
CCC1CN(C(=O)N2CCC(C(=O)NCc3ccccc3OC)CC2)c2cc(C)ccc2O1 (stereo unspecified) | inconclusive: 3.7 µM [inhibitor, partial curve, poor fit] | –
Cc1ccc(C2(CC(=O)O)CCOC(C)(C)C2)cc1 (stereo unspecified) | active: 9.28 µM | –
CCN(CC)CCn1c(=N)n(CC(=O)c2ccc(Br)s2)c2ccccc21 | active: 1.85 µM | –
O=[N+]([O-])c1ccc(/C=N\NS(=O)(=O)c2ccc(F)cc2)o1 | – | inactive: -3.4%
c1ccc(C[C@H]2CNCCN2CC2(c3ccccc3)CC2)cc1 | inconclusive: 18.5 µM [inhibitor, single point] | –
O=C(Nc1ncccc1O)c1ccc2ccccc2c1 | inconclusive: 18.5 µM [inhibitor, single point] | –
CC(=N\O)/C(CN(C)C)=N/O | active: 10.4 µM | –
O=C(N/N=C/c1ccncc1)c1ccccn1 | inconclusive: 16.5 µM [inhibitor, single point] | –
CC(C)CCN(CCC(C)C)C/C(O)=C(\C#N)c1nc(-c2ccccc2)cs1 | active: 2.62 µM | –
COc1ccc(C(=O)NCc2nnc(SCC(=O)NCc3ccco3)o2)cc1 | inconclusive: 10.4 µM [inhibitor, partial curve, poor fit] | –
NC(=O)c1ccc(NC(=O)CCCN2C(=O)NC3(CCCC3)C2=O)cc1 | inconclusive: 3.7 µM [inhibitor, full curve] | –
CCOc1cc2c(cc1OCC)-n1cccc1C(c1ccc(OC)cc1)NC2 (stereo unspecified) | inconclusive: 3.7 µM [inhibitor, partial curve] | –
CCCN(CCC)CCNS(=O)(=O)c1ccc2c(c1)CCN2C(=O)C1CCC1 | inconclusive: 18.5 µM [inhibitor, single point] | –
CCOC(=O)c1c(NC(=O)COc2ccccc2OCC)sc2c1CC(C)(C)NC2(C)C | active: 11.7 µM | –
Cc1ccc(OCCCC(=O)NC2CCCCC2)cc1 | inconclusive: 3.29 µM [inhibitor, single point] | –
O=[N+]([O-])c1ccc(C[n+]2c(-c3ccccc3)cc(-c3ccccc3)cc2-c2ccccc2)cc1 | active: 0.928 µM | –
O=C(NN1CCOCC1)c1ccc(Cl)c(Cl)c1 | inconclusive: 14.7 µM [inhibitor, partial curve, poor fit] | –
CC(C)(C)c1nn(-c2ccccc2)c2[nH]c(=O)c(CNCc3ccco3)cc12 | inconclusive: 9.28 µM [inhibitor, partial curve, poor fit] | –

Structure (SMILES) | Potency | activity change, negative = inhibition
CCOCCCNC(=S)Nc1ccc2nc(N3CCN(CC)CC3)cc(C)c2c1 | – | inactive: 6.14%
COc1ccc(C2=NS(=O)(=O)N(C)C(C(=O)N3CCc4ccccc4C3)=C2)cc1OC | – | inactive: 52%
Cc1ccc(-c2cccc(NC(=O)C3C4C=CC(C4)C3C(=O)O)c2)o1 (stereo unspecified) | – | inactive: 41.1%
CC(C)(C)C(=O)Nc1ccc(-c2nnc3n2CCCCC3)cc1 | inconclusive: 18.5 µM [inhibitor, single point] | –
Cc1ccc(C(=O)c2nc(C(=O)NCCO)nc3ccccc23)cc1 | inconclusive: 18.5 µM [inhibitor, single point] | –
Fc1ccc(CNC(=S)Nc2ccccc2Cl)cc1 | inconclusive: 1.31 µM [inhibitor, partial curve, poor fit] | –
N#Cc1ccc(CN2CCN(C(=O)c3ccc(S(=O)(=O)N4CCCCCC4)cc3)CC2)cc1 | inconclusive: 6.57 µM [inhibitor, partial curve, poor fit] | –
COc1ccc(CC(C)CC(=O)NCCc2ccc(OC)c(OC)c2)cc1 (stereo unspecified) | inconclusive: 10.4 µM [inhibitor, partial curve, poor fit] | –
CCn1c2ccccc2c2cc(NC(=O)COC(=O)c3ccccc3O)ccc21 | – | inactive: 16.3%
COc1ccccc1N(Cc1cc(=O)[nH]c2ccccc12)C(=O)c1cccc([N+](=O)[O-])c1 | inconclusive: 11.7 µM [inhibitor, single point] | –
CCc1ccccc1NC(=O)C1C2C=CC(O2)C1C(=O)O (stereo unspecified) | inconclusive: 13.1 µM [inhibitor, single point] | –
Cc1sc2ncnc(N3CCC(C(=O)NNC(=O)COc4ccc(Br)cc4)CC3)c2c1C | inconclusive: 18.5 µM [inhibitor, single point] | –
C=CCSc1nnc(CSc2nc3sc4c(c3c(=O)[nH]2)CCCC4)n1-c1ccccc1 | inconclusive: 18.5 µM [inhibitor, single point] | –
O=C(c1ccc(OC2CCN(CCc3ccccc3)CC2)cc1)N1CCC[C@H]1CO | inconclusive: 4.15 µM [inhibitor, partial curve, poor fit] | –
COC(=O)Cc1cc(=O)n(-c2ccccc2)[nH]1 | – | inactive: 26.9%
CC(C)Cn1c(N)c(C(=O)COC(=O)C2CC(=O)N(c3ccc4c(c3)OCCO4)C2)c(=O)n(C)c1=O (stereo unspecified) | – | inactive: 20.2%
COC(=O)C1=C(c2ccc(F)cc2OCc2ccccc2)C[C@@H]2CC[C@H]1N2C(=O)NCc1ccc(N(C)C)cc1 | inconclusive: 3.29 µM [inhibitor, partial curve] | –
CCc1ccc(N2C(=O)CC(c3ccc(F)cc3)C3=C2COC3=O)cc1 (stereo unspecified) | inconclusive: 20.8 µM [inhibitor, partial curve, poor fit] | –
CN(C(=O)COC(=O)c1cc([N+](=O)[O-])ccc1Sc1ccccc1)C1CCS(=O)(=O)C1 (stereo unspecified) | – | inactive: -13.2%
O=C(c1ccccc1S(=O)(=O)NCc1ccccc1)N1CCCC1 | active: 14.7 µM | –
CCC1Oc2ccc(C)cc2N(CC(=O)NCc2cccc(OC)c2)C1=O (stereo unspecified) | – | inactive: 5.34%
CN(C)S(=O)(=O)c1cccc(NC(=O)c2ccc(S(=O)(=O)N3CCCCC3)cc2)c1 | inconclusive: 13.1 µM [inhibitor, partial curve] | –
COCCCNCCOCCOc1ccc(Cl)cc1Br | inconclusive: 18.5 µM [inhibitor, single point] | –
COCCn1c(-c2cc(OC)c(OC)c(OC)c2)nc2oc3cc(OC)ccc3c(=O)c2c1=O | inconclusive: 1.31 µM [inhibitor, full curve] | –

Structure (SMILES) | Potency | activity change, negative = inhibition
Cc1ccc(Sc2ncccc2COC(=O)Nc2c(C)cccc2C)cc1 | active: 7.38 µM | –
COc1cccc(C(=O)c2cn(CC(=O)NCc3ccco3)c3nc(C)ccc3c2=O)c1 | active: 4.15 µM | –
CC1CCN(C(=O)c2cc3nc(-c4ccccc4)cc(-c4ccccc4)n3n2)CC1 | active: 6.57 µM | –
Cc1ccc(-c2c(NC(=O)c3ccco3)oc3ccccc3c2=O)cc1 | – | inactive: 115%
Cc1ccc(Nc2nc(-c3ccc(O)cc3O)cs2)nc1 | – | inactive: 20.1%
Cc1ccc2nc(SCC(=O)N3CCC(C)CC3)nc(=O)n2c1 | inconclusive: 16.5 µM [inhibitor, single point] | –
COc1ccc(OC)c(NC(=O)c2cccc(N3C(=O)C4C5C=CC(C6CC56)C4C3=O)c2)c1 (stereo unspecified) | inconclusive: 14.7 µM [inhibitor, partial curve, poor fit] | –
Clc1ccc(C(c2ccc(Cl)cc2)n2cc[n+](CC(OCc3ccc(Cl)cc3Cl)c3ccc(Cl)cc3Cl)c2)cc1 (stereo unspecified) | inconclusive: 4.15 µM [inhibitor, single point] | –
CC(NC(=O)CN1C(=O)NC2(CCc3ccccc32)C1=O)c1ccc2c(c1)OCCO2 (stereo unspecified) | – | inactive: 1.13%
O=C(NCc1cccs1)c1ccc(N2CCCC2=O)cc1 | – | inactive: 46.1%
COc1ccc2ccccc2c1/C=N/n1cnnc1 | – | inactive: -6.46%
Nc1nc(CN2CCN(c3ccccc3)CC2)nc(Nc2ccc(Cl)cc2)n1 | – | inactive: 4.98%
COc1cccc(NC(=O)CCc2nnc3ccc(N4CCC(C)CC4)nn23)c1 | inconclusive: 10.4 µM [inhibitor, partial curve] | –
Cc1ccccc1NS(=O)(=O)c1ccc(N2CCCC2=O)cc1 | inconclusive: 16.5 µM [inhibitor, single point] | –
Cc1ccc(CSCC(=O)Nc2ccc(F)cc2)cc1 | inconclusive: 9.28 µM [inhibitor, single point] | –
O=C(CN1C(=O)NC2(CCCC2)C1=O)Nc1ccc(C(F)(F)F)cc1 | – | inactive: 45.9%
CNC(=O)c1cc(NC(=O)CCn2nc(-c3ccc(C)cc3)c3ccccc3c2=O)ccc1OC | inconclusive: 2.33 µM [inhibitor, partial curve, poor fit] | –
O=c1cc(O)c2c(=O)n(Cc3ccccc3)c3ccccc3c2o1 | inconclusive: 7.38 µM [inhibitor, single point] | –
CCCC(NC(=S)NCC1CCCO1)C12CC3CC(CC(C3)C1)C2 (stereo unspecified) | – | inactive: -1.18%
N/C(=N\OS(=O)(=O)c1ccccc1)c1ccncc1 | active: 8.28 µM | –
CC(C)(C)NCC(O)COc1ccccc1C1CCCC1 (stereo unspecified) | active: 5.22 µM | –
Cc1ccc(S(=O)(=O)NCc2ccc3[nH]c(C)cc3c2)cc1 | – | inactive: -28.1%
CN(C)c1cccc2c1c(NS(=O)(=O)c1cn(C)cn1)nn2C | inconclusive: 8.28 µM [inhibitor, partial curve, poor fit] | –

Molecules listed so far with a cyano group, in the order listed:
Structure (SMILES) | Potency | activity change, negative = inhibition
CCN(CC)S(=O)(=O)c1cccc(NC(=O)c2ccc(C#N)cc2)c1 | inconclusive: 10.4 µM [inhibitor, partial curve, poor fit] | –
CC(C)CCN(CCC(C)C)C/C(O)=C(\C#N)c1nc(-c2ccccc2)cs1 | active: 2.62 µM | –
N#Cc1ccc(CN2CCN(C(=O)c3ccc(S(=O)(=O)N4CCCCCC4)cc3)CC2)cc1 | inconclusive: 6.57 µM [inhibitor, partial curve, poor fit] | –
